Results as given in PMC3507953.
Results are given in words; binding and its absence hold for the method and conditions named. Binding seen in cells or lysates may run through a third protein. Some results given as binding are weak or reduced against the parent protein; the word gives no strength. Sequences can lack the tags named with a protein.

Target: T1, Myc-Ebf1 (HeLa) (UniProt Q07802)
T1 sequence: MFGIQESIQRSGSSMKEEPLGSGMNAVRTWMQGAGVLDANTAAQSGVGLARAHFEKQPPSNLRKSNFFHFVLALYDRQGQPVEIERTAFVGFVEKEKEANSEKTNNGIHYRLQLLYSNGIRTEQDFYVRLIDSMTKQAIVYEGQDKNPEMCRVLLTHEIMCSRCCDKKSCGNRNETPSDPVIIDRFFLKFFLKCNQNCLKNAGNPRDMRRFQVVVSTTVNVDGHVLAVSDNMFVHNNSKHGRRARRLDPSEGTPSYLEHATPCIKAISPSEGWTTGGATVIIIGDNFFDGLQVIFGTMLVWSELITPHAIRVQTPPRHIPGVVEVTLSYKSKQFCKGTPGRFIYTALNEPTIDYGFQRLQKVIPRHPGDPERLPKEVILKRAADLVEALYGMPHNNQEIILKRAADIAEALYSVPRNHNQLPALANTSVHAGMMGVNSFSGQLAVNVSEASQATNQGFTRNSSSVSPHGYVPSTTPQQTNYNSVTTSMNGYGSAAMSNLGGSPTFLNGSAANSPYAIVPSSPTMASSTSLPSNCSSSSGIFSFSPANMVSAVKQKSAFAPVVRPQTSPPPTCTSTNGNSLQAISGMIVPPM
Experiment: co-IP; HeLa cells transfected with HA-Zfp521 and Myc-Ebf1, harvested after 24 h; immunoprecipitation with anti-Myc beads, Western blot with anti-HA or anti-Myc; Triton X lysis buffer (50 mM Tris-HCl pH 7.4, 150 mM NaCl, 1% Triton X-100, 5 mM EDTA)

binding: binds
B1: HA-Zfp521 (HeLa) (protein, UniProt Q6KAS7 1-1311)
chain: MSRRKQAKPRSLKDPNCKLEDKIEDGEAVDCKKRPEDGEELEEDAVHSCDSCLQVFESLSDITEHKIHQCQLTDGVDVEDDPSCSWPASSPSSKDQTSPSHGEGCDFGEEEGGPGLPYPCQFCDKSFSRLSYLKHHEQSHSDKLPFKCTYCSRLFKHKRSRDRHIKLHTGDKKYHCSECDAAFSRSDHLKIHLKTHTSNKPYKCAVCRRGFLSSSSLHGHMQVHERNKDGSQSGSRMEDWKMKDTQKCSQCEEGFDFPEDLQKHIAECHPECSPNEDRAALQCMYCHELFVEETSLMNHIEQVHGGEKKNSCSICSESFLTVEELYSHMDSHQQPESCNHSNSPSLVTVGYTSVSSTTPDSNLSVDSSTMVEAAPPIPKSRGRKRAAQQTSDMTGPSSKQAKVTYSCIYCNKQLFSSLAVLQIHLKTMHLDKPEQAHICQYCLEVLPSLYNLNEHLKQVHEAQDPGLIVSAMPAIVYQCNFCSEVVNDLNTLQEHIRCSHGFANPAAKDSNAFFCPHCYMGFLTDSSLEEHIRQVHCDLSGSRFGSPVLGTPKEPVVEVYSCSYCTNSPIFNSVLKLNKHIKENHKNIPLALNYIHNGKKSRALSPLSPVAIEQTTLKMMQTVGGGPARASGEYICNQCGAKYTSLDSFQTHLKTHLDTVLPKLTCPQCNKEFPNQESLLKHVTIHFMITSTYYICESCDKQFTSVDDLQKHLLDMHTFVFFRCTLCQEVFDSKVSIQLHLAVKHSNEKKVYRCTSCNWDFRNETDLQLHVKHNHLENQGKVHKCIFCGESFGTEVELQCHITTHSKKYNCRFCSKAFHAVILLEKHLREKHCVFETKTPNCGTNGASEQVQKEEAELQTLLTNSQESHNSHDGSEEDVDSSEPMYGCDICGAAYTMETLLQNHQLRDHNIRPGESAIVKKKAELIKGNYKCNVCSRTFFSENGLREHMQTHLGPVKHYMCPICGERFPSLLTLTEHKVTHSKSLDTGNCRICKMPLQSEEEFLEHCQMHPDLRNSLTGFRCVVCMQTVTSTLELKIHGTFHMQKTGNGSSVQTTGRGQHVQKLYKCASCLKEFRSKQDLVKLDINGLPYGLCAGCVNLSKSSSPGLSLPPGASRPGLGQNESLSAMEGKGKAGGLKTRCSSCNVKFESESELQNHIQTVHRELVPDANSTQLKTPQVSPMPRISPSQSDEKKTYQCIKCQMVFYNEWDIQVHVANHMIDEGLNHECKLCSQTFDSPAKLQCHLIEHSFEGMGGTFKCPVCFTVFVQANKLQQHIFSAHGQEDKIYDCTQCPQKFFFQTELQNHTMTQHSS
